From article PMC7665171
These are yes or no findings as the source states them, for the method shown. For some assays here: Binding seen in cells or lysates may run through a third protein. Some entries that bind do so weakly or less than the wild type.

Tests used:
MCL-1-3xFlag = MCL-1-3xFlag (UniProt Q07820); test: co-IP; HEK293T cells co-transfected for 24 h, then treated with UMI-77 (10 µM, 4 h) or oxygen-glucose deprivation (5 h); lysis in RIPA buffer (20 mM Tris-HCl, 150 mM NaCl, 0.5% NP-40, 1 mM EDTA); anti-Flag or anti-HA beads overnight at 4 °C; western blot
MCL-1-3xFlag F318A/V321A = MCL-1-3xFlag F318A/V321A (UniProt Q07820); test: as above
[1] = target: MCL-1-3xFlag ΔLIR^261–264 (UniProt Q07820); test: as above
MCL-1-3xFlag W261A/I264A = MCL-1-3xFlag W261A/I264A (UniProt Q07820); test: as above
MCL-1-3xFlag I264A = MCL-1-3xFlag I264A (UniProt Q07820); test: as above
MCL-1-3xFlag V321A = MCL-1-3xFlag V321A (UniProt Q07820); test: as above
MCL-1-3xFlag W261A = MCL-1-3xFlag W261A (UniProt Q07820); test: as above
MCL-1-3xFlag F318A = MCL-1-3xFlag F318A (UniProt Q07820); test: as above
[2] = target: endogenous MCL-1 (human (endogenous in HEK293T and HeLa)) (UniProt Q07820); test: proximity ligation; PLA with MCL-1 and LC3A primary antibodies in fixed HeLa WT and quadruple KO (NBR1, TAX1BP1, p62, NDP52) cells, UMI-77 (5 µM) for the indicated times
[3] = target: endogenous MCL-1 (human (endogenous in HEK293T and HeLa)) (UniProt Q07820); test: proximity ligation; Duolink PLA with MCL-1 and LC3A primary antibodies in fixed HEK293T cells, DMSO or UMI-77 (10 µM, 4 h)
GST-LC3A = GST-LC3A (UniProt Q9H492); test: pull-down; GST-LC3A incubated with purified MCL-1 (1-325) for 2 h at 4 °C; GST beads washed four times with lysis buffer; western blot; both purified

Measured: binding

HA-LC3A (from UniProt Q9H492 1-121)
not listed: [2] | [3] | GST-LC3A
binds: all other assays above

endogenous LC3A (from UniProt Q9H492 1-121)
binds: [2] | [3]

truncated MCL-1 (1-325aa) (from UniProt Q07820 1-325) (domain or fragment)
binds: GST-LC3A
